Measurements published in patent publication US12544395B2, “Combination compositions comprising a beta-lactamase inhibitor and uses thereof” (priority 2018, dated 2026).

What was measured:
Assay type in all cases: cell-based
Conditions in all cases: alone
E. coli SI-M004 = assay: Broth microdilution MIC (strain enzymes: SHV-2, GES-12)
K. pneumoniae 319478 = assay: Broth microdilution MIC (strain enzymes: SHV-12, CTX-M3 and TEM-1)
E. coli 2150 = assay: Broth microdilution MIC (strain enzymes: SHV-3, TEM-1)
K. pneumoniae ESBL 7 #1 = assay: Broth microdilution MIC (strain enzymes: SHV-12, TEM-1)
E. coli ESBL 2 = assay: Broth microdilution MIC (strain enzymes: TEM-1)
E. coli SI-LP377 = test system: E. coli SI-LP377
E. coli ESBL 5 = assay: Broth microdilution MIC (strain enzymes: CTX-M15, TEM-1)
K. pneumoniae BAA 1705 = assay: Broth microdilution MIC (strain KPC-producing)
K. pneumoniae SI-KP NO30 = assay: Broth microdilution MIC (strain enzymes: TEM-26b, SHV-60, SHV-26)
E. coli BAS 1 = assay: Broth microdilution MIC (strain enzymes: none detected)
E. coli Si-FDL-GES = test system: E. coli Si-FDL-GES
K. pneumoniae 3151 = assay: Broth microdilution MIC (strain enzymes: SHV-12, TEM-1)
K. pneumoniae KPN 508 = assay: Broth microdilution MIC (strain enzymes: SHV-7, TEM-1)
E. coli ESBL 4 = assay: Broth microdilution MIC (strain enzymes: CTX-M15, TEM-1)
K. pneumoniae 170375 = assay: Broth microdilution MIC (strain enzymes: SHV-12, CTX-M15 and TEM-1)
K. pneumoniae KP 8 = assay: Broth microdilution MIC (strain enzymes: TEM-10, TEM-1, CTX-M15)
K. pneumoniae KP 3 = assay: Broth microdilution MIC (strain enzymes: SHV-1, TEM-1)
K. oxytoca 169219 = assay: Broth microdilution MIC (strain enzymes: TEM-1, CTXM-15)
K. pneumoniae KP 4 = assay: Broth microdilution MIC (strain enzymes: SHV-2a, SHV-5, TEM-1)
K. pneumoniae ESBL 7 #2 = assay: Broth microdilution MIC (strain enzymes: SHV-12, CTX-M15, TEM-1)

SMILES: CC1=C(C(=O)O)N2C(=O)[C@@H](NC(=O)[C@H](N)c3ccccc3)[C@H]2SC1 [Cephalexin, cefalexin, reference compound]
- MIC of cefalexin (LEX) (E. coli SI-M004): 32 µg/mL
- MIC of cefalexin (LEX) (K. pneumoniae 319478): >32 µg/mL
- MIC of cefalexin (LEX) (E. coli 2150): >32 µg/mL
- MIC of cefalexin (LEX) (K. pneumoniae ESBL 7 #1): 32 µg/mL
- MIC of cefalexin (LEX) (E. coli ESBL 2): >32 µg/mL
- MIC of cefalexin (LEX) (E. coli SI-LP377): >32 µg/mL
- MIC of cefalexin (LEX) (E. coli ESBL 5): >32 µg/mL
- MIC of cefalexin (LEX) (K. pneumoniae BAA 1705): >32 µg/mL
- MIC of cefalexin (LEX) (K. pneumoniae SI-KP NO30): 0.5 µg/mL
- MIC of cefalexin (LEX) (E. coli BAS 1): >32 µg/mL
- MIC of cefalexin (LEX) (E. coli Si-FDL-GES): >32 µg/mL
- MIC of cefalexin (LEX) (K. pneumoniae 3151): >32 µg/mL
- MIC of cefalexin (LEX) (K. pneumoniae KPN 508): 32 µg/mL
- MIC of cefalexin (LEX) (E. coli ESBL 4): >32 µg/mL
- MIC of cefalexin (LEX) (K. pneumoniae 170375): >32 µg/mL
- MIC of cefalexin (LEX) (K. pneumoniae KP 8): 0.5 µg/mL
- MIC of cefalexin (LEX) (K. pneumoniae KP 3): 4 µg/mL
- MIC of cefalexin (LEX) (K. oxytoca 169219): >32 µg/mL
- MIC of cefalexin (LEX) (K. pneumoniae KP 4): 8 µg/mL
- MIC of cefalexin (LEX) (K. pneumoniae ESBL 7 #2): >32 µg/mL
